Experimental data as given in PubChem BioAssay AID493014 (National Center for Advancing Translational Sciences (NCATS), 2011).
This is one part of the list. These are further read-outs of the screen, such as a control signal, another cell line or another target. No call is given for them. Most of these compounds were active or inconclusive in the main read-out, so they are no random draw. Potencies come from curve fits of mixed quality, noted in brackets.

Assay: qHTS Assay to Find Inhibitors of Chronic Active B-Cell Receptor Signaling
Conditions: ABC-DLBCL IkBa-CBG/CBR reporter, luminescence ratio (green luciferase fused to IkBa over red control in TMD8 lymphoma cells), 4 h
In short: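 Doxycycline induced both beetle luciferases in TMD8 lymphoma cells; IKK-driven degradation limits the IkappaBalpha-fused green signal, while red luminescence normalises for cell number and nonspecific effects. Compounds tested up to 46 uM, 4 hrs.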

[1] = measured here: CBR red luminescence, cell number
[2] = measured here: IkBa-CBG green luminescence

**Q.** What does the source list for CN(C)NC(=S)NC(=O)C12CC3CC(CC(C3)C1)C2?
**A.** AC50 [1]: 2.82 µM [rising, full curve]; AC50 [2]: 6.31 µM [falling, full curve]

**Q.** For Cc1ccc2nc(C3CCCCC3)[nH]c2c1, which AC50 [1] is on record?
**A.** 14.1 µM [falling, partial curve, poor fit]

**Q.** Which AC50 [1] does the source give for O=C(COC(=O)c1ccc(Cl)nc1)c1ccc2c(c1)OCCO2 here?
**A.** 2.82 µM [rising, partial curve, poor fit]

**Q.** With COc1ccc(N2CCN(C(=O)CSc3nnc(Cn4nnc5ccccc54)n3C)CC2)cc1 as the compound, how does the AC50 [1] read?
**A.** 2.31 µM [rising, partial curve, poor fit]

**Q.** With Nc1nc(NC(=O)c2ccco2)nn1-c1ccccc1 as the compound, how does the AC50 [1] read?
**A.** 10 µM [falling, partial curve]

**Q.** Which AC50 [1] does the source give for Cc1nc(-c2ccccc2)sc1-c1nc(-c2cccnc2)ncc1S(=O)(=O)c1ccccc1 here?
**A.** 5.62 µM [rising, partial curve, poor fit]

**Q.** Which AC50 [1] does the source give for O=C(/C=C/c1ccc(Cl)cc1)Nc1ccccc1N1CCOCC1 here?
**A.** 2.06 µM [falling, partial curve]

**Q.** For CCOC(=O)c1sc(NC(=O)c2ccc(=O)[nH]c2)nc1C, which AC50 [1] is on record?
**A.** 2.24 µM [falling, full curve]

**Q.** For O=Cc1ccc2noc(-c3ccc(Cl)cc3)c2c1, which AC50 [1] is on record?
**A.** 6.51 µM [rising, partial curve, poor fit]

**Q.** With Cc1cc(OCC(=O)N2CCc3ccccc3C2)c2c(-c3ccccc3)cc(=O)oc2c1 as the compound, how does the AC50 [1] read?
**A.** 14.6 µM [falling, partial curve]

**Q.** For CCCc1nn(C)c(C(=O)Nc2cccc(CC)c2)c1Cl, which AC50 [1] is on record?
**A.** 9.2 µM [rising, partial curve, poor fit]

**Q.** For CCOC(=O)C1C(c2ccccc2)NC(=S)NC1(C)O (stereo not given), which AC50 [1] is on record?
**A.** 28.2 µM [falling, single point]

**Q.** With O=C1Nc2cc(Cl)c(Cl)cc2N(O)N1c1ccc(Cl)c(Cl)c1 as the compound, how does the AC50 [1] read?
**A.** 10 µM [falling, partial curve]

**Q.** Which AC50 [1] does the source give for COc1cccc(Nc2nc(-c3sc(C)nc3C)cs2)c1 here?
**A.** 35.5 µM [falling, single point]

**Q.** With Cc1ccc(SCC(=O)c2ccc(CC(=O)O)s2)cc1 as the compound, how does the AC50 [1] read?
**A.** 20 µM [falling, partial curve]

**Q.** For Cc1ccccc1NC(=S)NNC(=O)c1csc2c1CCC(C)C2 (stereo not given), which AC50 [1] is on record?
**A.** 1.03 µM [falling, full curve]

**Q.** For O=C(Nc1ccc(C(=O)O)cc1)Nc1cccc2ccccc12, which AC50 [1] is on record?
**A.** 8.91 µM [falling, partial curve, poor fit]

**Q.** What does the source list for O=C1CSCC(=O)N1c1ccccc1?
**A.** AC50 [1]: 29.1 µM [rising, single point]; AC50 [2]: 23.1 µM [falling, partial curve, poor fit]
